The text below walks through data of PMC11557793.

Sequences of proteins named here, by UniProt entry; tags and fusion partners are left off. A change or cut given only in a name is not applied to a line headed by its entry.
UniProt Q13263: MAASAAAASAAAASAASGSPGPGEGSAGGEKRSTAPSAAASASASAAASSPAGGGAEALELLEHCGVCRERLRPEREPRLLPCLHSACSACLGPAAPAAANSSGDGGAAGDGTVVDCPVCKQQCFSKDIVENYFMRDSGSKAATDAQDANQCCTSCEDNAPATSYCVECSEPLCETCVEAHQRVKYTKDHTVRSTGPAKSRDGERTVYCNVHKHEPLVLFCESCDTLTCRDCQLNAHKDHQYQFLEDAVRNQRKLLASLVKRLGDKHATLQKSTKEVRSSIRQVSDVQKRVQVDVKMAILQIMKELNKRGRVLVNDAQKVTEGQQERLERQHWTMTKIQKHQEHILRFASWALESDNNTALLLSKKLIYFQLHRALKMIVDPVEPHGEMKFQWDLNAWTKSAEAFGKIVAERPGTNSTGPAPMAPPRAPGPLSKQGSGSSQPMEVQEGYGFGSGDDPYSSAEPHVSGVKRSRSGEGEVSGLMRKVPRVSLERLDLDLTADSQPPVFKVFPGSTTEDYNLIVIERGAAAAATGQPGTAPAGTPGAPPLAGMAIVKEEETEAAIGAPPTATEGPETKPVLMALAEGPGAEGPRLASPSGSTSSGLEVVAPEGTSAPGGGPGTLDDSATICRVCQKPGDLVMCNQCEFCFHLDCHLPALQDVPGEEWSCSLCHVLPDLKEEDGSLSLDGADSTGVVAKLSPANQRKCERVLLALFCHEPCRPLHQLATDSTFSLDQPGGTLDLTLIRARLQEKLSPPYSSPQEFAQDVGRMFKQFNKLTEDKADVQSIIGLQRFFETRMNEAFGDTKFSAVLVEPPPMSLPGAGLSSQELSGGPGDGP
UniProt Q6GPH4: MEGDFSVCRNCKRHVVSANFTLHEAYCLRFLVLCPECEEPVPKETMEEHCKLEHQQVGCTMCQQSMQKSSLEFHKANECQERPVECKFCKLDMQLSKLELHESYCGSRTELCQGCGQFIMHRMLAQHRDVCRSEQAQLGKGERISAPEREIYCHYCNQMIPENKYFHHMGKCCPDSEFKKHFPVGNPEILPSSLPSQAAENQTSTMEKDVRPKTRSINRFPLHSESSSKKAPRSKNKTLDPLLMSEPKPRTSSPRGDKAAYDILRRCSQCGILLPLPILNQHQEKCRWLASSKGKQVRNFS

These are yes or no findings as the source states them, for the method shown. Binding seen in cells or lysates may run through a third protein. A result given as binding can be weak or reduced; the word gives no strength.

This assay has as its target HA-TRIM28 (human) (UniProt Q13263). Kind of assay: co-IP; IP with co-expressed XAF1 (WT or ΔZF7), equal amount of ZNF313 input (Fig. 5h) or of HA-TRIM28 input (Fig. S5f); cells not given.

ΔZF7-XAF1 (from UniProt Q6GPH4): the binding result is listed as “binds”.
